At least one compound was matched to its structure with a doubt left.
Legend:
coronaviruses = details: 10-30 micromoles; cited from earlier work
SARS-CoV-2 = experiment: Time-of-addition assay (duration of action) in Vero E6 cells; type: cell-based; details: CVL218 20 μM, remdesivir 10 μM, 14 h after infection

Compound	Inhibition of coronaviruses versus untreated control group (coronaviruses)	Antiviral activity, after the virus enters (SARS-CoV-2)	Antiviral activity, whole process treatment (SARS-CoV-2; versus DMSO)
CCOC(=O)c1c(CSc2ccccc2)n(C)c2cc(Br)c(O)c(CN(C)C)c12 [Arbidol, arbidol]	up to 60 times		
CCC(CC)COC(=O)[C@H](C)N[P@](=O)(OC[C@H]1O[C@@](C#N)(c2ccc3c(N)ncnn23)[C@H](O)[C@@H]1O)Oc1ccccc1 [remdesivir, reference compound]		could only play a role in the post-viral entry stage	stronger antiviral activity
